Test results as given in patent US20060235215A1 (published 2006).
Blank lines part the entries; values can stand above or below the binder they belong to.

Key:
Test in all cases: yeast two-hybrid
[1] = target: T1, O. sativa Cellulose Synthase Catalytic Subunit, RSW1-Like, bait fragment aa 316-583 (Oryza sativa, UniProt A2Y0X2 316-583)
T1 construct: bait; also called OsCS; PN19707
T1 sequence: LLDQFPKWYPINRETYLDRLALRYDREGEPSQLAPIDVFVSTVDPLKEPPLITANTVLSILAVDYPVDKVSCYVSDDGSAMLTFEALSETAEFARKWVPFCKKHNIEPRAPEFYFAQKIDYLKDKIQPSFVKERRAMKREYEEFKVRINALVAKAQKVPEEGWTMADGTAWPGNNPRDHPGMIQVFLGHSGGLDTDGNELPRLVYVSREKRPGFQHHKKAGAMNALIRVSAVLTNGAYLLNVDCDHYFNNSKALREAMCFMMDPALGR
Protocol: (§1) Yeast carrying the target gene construct was combined with yeast carrying the activation domain library. The two yeast strains mated to form diploid yeast and were plated on media that selected for expression of one or more Ga14p-responsive reporter genes. Thus, both hybrid proteins (i.e., the target “bait” protein and the activation domain “prey” protein) were expressed in a yeast reporter strain where an interaction between the test proteins results in transcription of the reporter genes […]. Colonies that arose after incubation were selected for further characterization. The activation domain plasmid was isolated from each colony obtained in the two-hybrid search. The sequence of the insert in this construct was obtained by sequence analysis (e.g., Sanger's dideoxy nucleotide chain termination method; see Ausubel et al., 1988, including updates up to 2002). Thus, the identity of positives obtained from these searches was determined by sequence analysis against proprietary and public (e.g., GENBANK®) nucleic acid and protein databases.
A second bait, namely O. sativa Cellulose Synthase Catalytic Subunit, RSW1-Like (OSCS; PN19707; GENBANK® Accession No. AF030052), was also used.

[2] = target: T2, OsSGT1, bait fragment aa 200-368 (Oryza sativa, UniProt Q0JL44 200-367)
T2 construct: bait; also called PN20285
T2 sequence: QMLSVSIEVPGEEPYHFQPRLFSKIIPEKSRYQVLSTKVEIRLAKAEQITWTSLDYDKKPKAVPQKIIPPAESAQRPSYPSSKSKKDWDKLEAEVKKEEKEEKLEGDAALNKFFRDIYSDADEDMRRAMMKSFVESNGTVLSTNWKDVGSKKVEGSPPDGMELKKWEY
Protocol: as §1
The rice SGT1 protein shares 74 and 75% amino acid sequence similarity with two Arabidopsis thaliana SGT1 homologs and 45% amino acid sequence similarity with Saccharomyces cerevisiae SGT1. […]

[3] = target: T3, Ring zinc finger protein PN20115, bait fragment aa 5-140 (Oryza sativa)
T3 construct: bait
T3 chain: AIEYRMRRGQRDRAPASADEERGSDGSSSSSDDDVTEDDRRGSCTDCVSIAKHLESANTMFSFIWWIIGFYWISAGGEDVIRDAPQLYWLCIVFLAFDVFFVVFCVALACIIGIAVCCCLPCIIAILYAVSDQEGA

- binding result [1]: binds
B1: Novel Protein PN29118, Fragment, prey clone aa 1-136 (other)
chain: TSSGDQQMVTVAERFPREVSSEAVFRCVRLGPVDQAEAEVAYQTAVSIGGHVFKGILHDVGPEALAVAGGGGASEYHFRLTGDGSSPSTAAAGEAGSGGGGNIIVSSAVVMDPYPTPGPYGAFPAGTPFFHGHPRP
notes: prey; AD fusion; output trait library; also called OsPN29118

- binding result [2]: binds
B2: L-aspartase-like protein-like PN24060, prey clone aa 176-315 (other)
chain: EKGMKEAENVVEAKSSQLESLVSHEGEKTPRPQAVAEGSSKVVPTPVEYTVNDIIDGKTVNAVEGLKVYEGLVNENEKNKILSLLNETKASFRRGGLEAGQTVIIGKRPMKGHGREIIQLGIPIVEGPPEDDYPRETKVE
notes: prey; AD fusion; output trait library

- binding result [3]: binds
B3: Proline rich protein PN23221, prey clone aa 84-302 (other)
chain: PEPEPKPEPKPEPKPEPKPEPKPYPEPKPEPKPEPKPEPEPKPEPKPEPKPEPKPYPEPKPEPKPEPKPEPKPEPKPKPEPKPHPEPKPDPKPEPKPHPEPEPKPEPKPEPKPHPEPEPKPEPKPEPKPEPKPEPKPEPKPKPKPEPKPKPEPKPYPEPKPKPEPKPEPKPEPKPEPKPEPKPEPKPEPKPEPKPKPEPKPHPKPEPKPEPKPEPKPEP
notes: as for B2
